Reference: PubChem BioAssay AID2685 (National Center for Advancing Translational Sciences (NCATS), 2010)
The other results are listed elsewhere or left out. The main result of the screen is listed elsewhere. These columns were measured beside it and carry no call. Most of these compounds were active or inconclusive in the main read-out, so they are no random draw. Potencies come from curve fits of mixed quality, noted in brackets.

Test: qHTS Assay for Lipid Storage Modulators in Drosophila S3 Cells;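 on cell number change: cells counted by Cell Tracker Red CMTPX staining in the red channel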
Details: BODIPY lipid droplet fluorescence, 18-24 h; for cell number change: measured here: cell count max response, cells fed with added oleic acid
In short: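 Laser-scanning cytometry quantifies lipid droplet accumulation (500–530 nm total intensity; droplet/cell object ratio) in oleic acid-fed (400 uM added) Drosophila S3 cells treated with a concentration series. 20 uM Triacsin C defined 100% inhibition.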

[1] = measured here: cell number channel AC50, cells fed with added oleic acid
[2] = measured here: lipid fluorescence (Fed channel) AC50, cells fed with added oleic acid

Compound | AC50 [1] | cell number change [%] | AC50 [2]
COc1ccc(CC(=O)N2CC(C)CC(C)C2)cc1 (stereo not given) | 5.17 µM [rising, partial curve, poor fit] | – | –
COc1ccccc1C(=O)COC(=O)c1cc(S(=O)(=O)N2CCCCC2)ccc1N1CCOCC1 | – | 11 | 29.1 µM [falling, single point]
CCN(CC)S(=O)(=O)c1ccc(C)c(NC(=O)COC(=O)c2ccc(C)c(S(=O)(=O)N3CCOCC3)c2)c1 | 29.1 µM [rising, single point] | 41.2 | 29.1 µM [rising, single point]
COc1ccc(-c2cn[nH]c2-c2ccc(OCc3ccccc3)cc2O)cc1OC | – | -15 | 1.64 µM [falling, full curve, poor fit]
Cc1ccc(CNC(=O)c2sc3nc4c(c(C(F)(F)F)c3c2N)CCC4)cc1 | – | 19.5 | 0.291 µM [rising, partial curve, poor fit]
CCCCCOC(=O)c1[nH]c2c(c1C)C(=O)C(C(=O)OC)C(C)C2 (stereo not given) | 23.1 µM [falling, partial curve] | -54.1 | 29.1 µM [falling, single point]
CCOC(=O)C1CCN(C(=O)Nc2ccc(Cl)cc2)CC1 | – | 0.305 | 4.61 µM [rising, full curve]
O=C(CSc1nc2ccc(Nc3nc(N4CCOCC4)nc(N4CCOCC4)n3)cc2s1)Nc1ccccc1F | – | -4.25 | 23.1 µM [rising, partial curve]
CCOc1ccccc1NC=C1C(=O)OC2(CCCCC2)OC1=O | – | 5.29 | 20.6 µM [rising, single point]
COc1ccc(Cn2c(=O)[nH]c3cc(C(=O)NCCCN4CCCC4)ccc3c2=O)cc1 | – | 20.9 | 0.13 µM [falling, full curve, poor fit]
O=C(NCc1ccc2c(c1)OCO2)c1cc(-c2ccncc2)nc2ccccc12 | – | – | 6.51 µM [rising, single point]
N#Cc1c(C(F)(F)F)cc(-c2cccc(Cl)c2)[nH]c1=O | – | 17.7 | 2.06 µM [falling, partial curve]
O=C1NC(=Nc2cccc([N+](=O)[O-])c2)SC1(CO)CO | – | 2.78 | –
CCOc1ccc(S(=O)(=O)N2CCCC(C(=O)NCc3ccccc3)C2)cc1 (stereo not given) | – | 20.8 | –
CCCC(=O)NC(=S)Nc1ccccc1OC | – | -0.319 | 1.64 µM [falling, partial curve]
COc1ccccc1C1C(C(=O)NCc2ccccc2)=C(C)Nc2ncnn21 (stereo not given) | – | 19.4 | 29.1 µM [rising, single point]
COc1ccc(N=C2SC(C(=O)O)CC(=O)N2C)cc1 (stereo not given) | – | -10 | –
CC1CC(C)C[N+](=C2C=C(N3CCCC3)CC(C)(C)C2)C1 (stereo not given) | – | -56.8 | 23.1 µM [falling, partial curve, poor fit]
N/C(Cc1ccc(Cl)cc1Cl)=N\OC(=O)Cc1ccc(Cl)cc1 | – | -0.553 | 1.64 µM [rising, partial curve, poor fit]
COc1ccc2nc(Nc3nc(CSc4nc5ccccc5[nH]4)cc(=O)[nH]3)nc(C)c2c1 | 23.1 µM [falling, single point] | -75.2 | 6.51 µM [rising, partial curve, poor fit]

Arranged by number of heavy atoms (ascending): part of the list above
Compound | AC50 [1] | cell number change [%] | AC50 [2]
CCCC(=O)NC(=S)Nc1ccccc1OC | – | -0.319 | 1.64 µM [falling, partial curve]
N#Cc1c(C(F)(F)F)cc(-c2cccc(Cl)c2)[nH]c1=O | – | 17.7 | 2.06 µM [falling, partial curve]
CCCCCOC(=O)c1[nH]c2c(c1C)C(=O)C(C(=O)OC)C(C)C2 (stereo not given) | 23.1 µM [falling, partial curve] | -54.1 | 29.1 µM [falling, single point]
COc1ccccc1C(=O)COC(=O)c1cc(S(=O)(=O)N2CCCCC2)ccc1N1CCOCC1 | – | 11 | 29.1 µM [falling, single point]
O=C(CSc1nc2ccc(Nc3nc(N4CCOCC4)nc(N4CCOCC4)n3)cc2s1)Nc1ccccc1F | – | -4.25 | 23.1 µM [rising, partial curve]

Later entries

Compound | AC50 [1] | cell number change [%] | AC50 [2]
CSc1ccc(-c2sc(Nc3cccc4ccccc34)n[n+]2-c2ccccc2)cc1 | – | -13.8 | 8.2 µM [falling, single point]
O=C(CSc1nc(=O)n2ccccc2n1)NCc1ccc(F)cc1 | 3.26 µM [falling, single point] | -7.13 | 3.66 µM [falling, single point]
COC(=O)CN(c1ccc(F)cc1)S(=O)(=O)c1ccccc1 | 0.082 µM [falling, full curve, poor fit] | – | 29.1 µM [rising, single point]
Cc1ccc(C(C)(C)C)cc1S(=O)(=O)Nc1ncnc2sccc12 | 29.1 µM [rising, single point] | 37.4 | –
CC(=O)Nc1ccc(SC[C@H](C)CN2CC[C@H](C(C)(C)C)CCC2=O)cc1 | 2.06 µM [falling, partial curve] | 8.1 | 0.461 µM [falling, partial curve, poor fit]
O=C(COC(=O)c1cc(-c2cccs2)nn1-c1ccccc1)Nc1cccc([N+](=O)[O-])c1 | – | 9.15 | 6.51 µM [falling, single point]
CCOC(=O)Nc1cc2c(cc1C(C)=O)OCO2 | – | – | 0.731 µM [rising, single point]
COc1ccc(NS(=O)(=O)c2cccc(NC(=O)c3ccc(Cl)nc3)c2)cc1 | – | -12.9 | –
CCOC(=O)C1CCCN(C(=O)c2cccs2)C1 (stereo not given) | 18.4 µM [falling, single point] | -169 | –
CC(C)(C)c1[nH]nc2c1C(C1C=CCCC1)C(C#N)=C(N)O2 (stereo not given) | 29.1 µM [falling, single point] | -30.4 | 23.1 µM [falling, single point]
Cc1ccc(NS(=O)(=O)c2c(C(=O)N3CCCCCC3)c(C)n(C)c2C)cc1C | – | – | 20.6 µM [rising, single point]
COc1ccc(N2C(=O)c3ccc(C(=O)Nc4ccc(NC(C)=O)cc4)cc3C2=O)cc1 | 0.00461 µM [falling, full curve, poor fit] | -16.7 | –
COC(=O)Cn1c2ccc(C)cc2c2nc(C)sc21 | – | -21.8 | –
Cc1nnc(N2CCC(C(=O)N3CCCCCC3)CC2)c2nn(-c3ccc(Cl)cc3)c(C)c12 | 6.51 µM [falling, single point] | -15.6 | 3.66 µM [falling, partial curve, poor fit]
CC(C)Cn1cc(C(=O)NCc2cccs2)c2c3ccccc3n(C)c2c1=O | 18.4 µM [falling, partial curve, poor fit] | -39.3 | –
N#C/C(=C\c1ccc(-c2cccc(Cl)c2)o1)C(=O)Nc1cccc2cccnc12 | – | -3.78 | 0.517 µM [rising, single point]
Cc1cccc(NC(=O)c2ccc(COc3ccc(Cl)cc3Cl)o2)n1 | 11.6 µM [rising, partial curve, poor fit] | 59.5 | –
CCCN1C2=NS(=O)(=O)CCN2c2ccccc21 | – | -0.357 | –
O=C(Nc1nc(-c2ccccn2)cs1)C1COc2ccccc2O1 (stereo not given) | – | -8.76 | 7.31 µM [falling, partial curve]
CNc1ccccc1C(C)(C)c1ccn[nH]1 | 20.6 µM [falling, single point] | -44.9 | –

Compound | AC50 [1] | cell number change [%] | AC50 [2]
CC1CCCCC12NC(=O)N(CC(=O)Nc1ccc3[nH]c(=O)[nH]c3c1)C2=O (stereo not given) | 0.92 µM [falling, full curve] | -37.5 | 1.3 µM [falling, full curve]
O=C(O)c1cccc(Nc2nc(-c3cc4ccccc4oc3=O)cs2)c1 | 0.082 µM [falling, full curve, poor fit] | -33.2 | –
O=C(CCCCCCC(=O)NCc1ccccc1)NCc1ccccc1 | – | -8.47 | 16.4 µM [rising, partial curve]
COc1ccc(Cl)cc1/C=N/NC(=O)c1c(-c2ccccc2)noc1C | – | -26.6 | 0.58 µM [falling, single point]
CN(Cc1ccc(F)cc1)C(=O)c1cc(COc2ccc(-n3cncn3)cc2)on1 | – | -11.3 | 29.1 µM [falling, single point]
CCOC(=O)c1ccccc1NC(=O)COc1coc(CN2CCc3ccccc32)cc1=O | 16.4 µM [rising, single point] | 58.6 | –
CC1(C)CC(=O)C2=C(C1)N1C(=C(C#N)C2c2ccccc2Cl)N=C(N)c2ccccc21 (stereo not given) | – | 5.81 | 4.11 µM [rising, single point]
Cc1[nH]nc2c1C(c1ccoc1)C(C#N)=C(N)O2 (stereo not given) | – | -11.3 | 0.058 µM [falling, full curve]
COc1nc(-c2ccccc2)ccc1-c1noc(-c2ccc(F)cc2)n1 | 0.0259 µM [falling, full curve, poor fit] | -20 | –
CC1CCN(S(=O)(=O)c2cccc(C(=O)Nc3nncs3)c2)CC1 | 6.51 µM [rising, single point] | -7.76 | 6.51 µM [rising, single point]
N#Cc1cccc(NC(=O)Cn2cnc(S(=O)(=O)N3CCCCC3)c2)c1 | – | -12.7 | 7.31 µM [falling, partial curve]
NS(=O)(=O)c1cc(C(=O)OCC(=O)N2CCc3ccccc3C2)ccc1Cl | – | 10 | 18.4 µM [rising, single point]
CC1(C)CN2C(=O)c3ccccc3C2(C)S1 (stereo not given) | 29.1 µM [falling, single point] | -57.4 | 0.58 µM [falling, single point]
CN(C(=O)C1CCN(c2ncnc3c2nc2n3CCCCC2)CC1)C1CCCCC1 | – | -32.8 | 29.1 µM [falling, single point]
O=C(Cn1ncc2c(=O)oc3ccccc3c21)NCCc1ccsc1 | – | 29.3 | 10.3 µM [rising, partial curve]
Cc1ccc(CNC(=O)CCn2cc(-c3ccc(C)cc3)nc2CCN)cc1 | – | 12.6 | 0.13 µM [falling, full curve, poor fit]
Cc1cc(/C=C(\C#N)c2nc3ccccc3[nH]2)c(C)n1C | – | 17.8 | 1.03 µM [rising, full curve]
CCN(CC(=O)Nc1c(F)cccc1F)C(=O)c1cc2c(cc1Cl)N1CCCCCC1=NS2(=O)=O | – | -6.5 | –
